# Results are given in words; binding and its absence hold for the method and conditions named. Some binding calls cover weakened binding; strength is not graded here. Where a sequence is shown, tags or fusion partners need not be part of it.
# T1: recombinant human RANKL-murine Fc fusion protein (Sino Biological Inc.) (human) (UniProt O14788)
# T1 sequence (looked up): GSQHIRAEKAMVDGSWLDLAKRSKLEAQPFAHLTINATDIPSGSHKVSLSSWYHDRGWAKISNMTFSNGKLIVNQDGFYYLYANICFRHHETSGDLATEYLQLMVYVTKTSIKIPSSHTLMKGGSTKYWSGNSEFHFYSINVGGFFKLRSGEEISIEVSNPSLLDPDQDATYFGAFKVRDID
# Molecular target: T1, recombinant human RANKL-murine Fc fusion protein (Sino Biological Inc.) (human)
# Assay: ELISA, human RANKL-murine Fc coated
binder,measurement,value
"OPG-Fc (Sino Biological Inc.) (Fc fusion, UniProt O00300 22-401, looked up, not shown: Fc part of the bought product) ETFPPKYLHYDEETSHQLLCDKCPPGTYLKQHCTAKWKTVCAPCPDHYYTDSWHTSDECLYCSPVCKELQYVKQECNRTHNRVCECKEGRYLEIEFCLKHRSCPPGFGVVQAGTPERNTVCKRCPDGFFSNETSSKAPCRKHTNCSVFGLLLTQKGNATHDNICSGNSESTQKCGIDVTLCEEAFFRFAVPTKFTPNWLSVLVDNLPGTKVNAESVERIKRQHSSQEQTFQLLKLWKHQNKDQDIVKKIIQDIDLCENSVQRHIGHANLTFEQLRSLMESLPGKKVGAEDIEKTIKACKPSDQILKLLSLWRIKNGDQDTLKGLMHALKHSKTYHFPKTVTQSLKKTIRFLHSFTMYKLYQKLFLEMIGNQVQSVKISCL",binding,binds

# Source: US20230203204A1 (published 2023)
